Experimental data taken from article PMC12022016.
These are yes or no findings as the source states them, for the method shown. Binding seen in cells or lysates may run through a third protein. Some results given as binding are weak or reduced against the parent protein; the word gives no strength.

Sequences of proteins named here, by UniProt entry; tags and fusion partners are left off. A change or cut given only in a name is not applied to a line headed by its entry.
UniProt Q01105: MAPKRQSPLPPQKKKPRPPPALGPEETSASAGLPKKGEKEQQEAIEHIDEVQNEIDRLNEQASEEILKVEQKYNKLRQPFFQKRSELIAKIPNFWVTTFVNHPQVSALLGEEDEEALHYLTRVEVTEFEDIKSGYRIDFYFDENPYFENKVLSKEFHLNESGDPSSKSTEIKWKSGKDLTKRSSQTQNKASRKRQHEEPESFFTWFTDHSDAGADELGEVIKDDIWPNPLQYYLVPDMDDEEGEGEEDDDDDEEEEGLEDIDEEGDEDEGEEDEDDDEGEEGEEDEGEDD
UniProt P62714: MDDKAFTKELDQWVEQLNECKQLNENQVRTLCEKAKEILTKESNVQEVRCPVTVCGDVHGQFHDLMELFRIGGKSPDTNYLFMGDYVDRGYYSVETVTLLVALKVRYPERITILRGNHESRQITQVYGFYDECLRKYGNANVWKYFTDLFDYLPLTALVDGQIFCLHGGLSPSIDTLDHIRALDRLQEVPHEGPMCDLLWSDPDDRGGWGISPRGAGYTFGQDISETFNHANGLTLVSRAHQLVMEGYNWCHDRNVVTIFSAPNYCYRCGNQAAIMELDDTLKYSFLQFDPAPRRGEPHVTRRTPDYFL
UniProt P30153: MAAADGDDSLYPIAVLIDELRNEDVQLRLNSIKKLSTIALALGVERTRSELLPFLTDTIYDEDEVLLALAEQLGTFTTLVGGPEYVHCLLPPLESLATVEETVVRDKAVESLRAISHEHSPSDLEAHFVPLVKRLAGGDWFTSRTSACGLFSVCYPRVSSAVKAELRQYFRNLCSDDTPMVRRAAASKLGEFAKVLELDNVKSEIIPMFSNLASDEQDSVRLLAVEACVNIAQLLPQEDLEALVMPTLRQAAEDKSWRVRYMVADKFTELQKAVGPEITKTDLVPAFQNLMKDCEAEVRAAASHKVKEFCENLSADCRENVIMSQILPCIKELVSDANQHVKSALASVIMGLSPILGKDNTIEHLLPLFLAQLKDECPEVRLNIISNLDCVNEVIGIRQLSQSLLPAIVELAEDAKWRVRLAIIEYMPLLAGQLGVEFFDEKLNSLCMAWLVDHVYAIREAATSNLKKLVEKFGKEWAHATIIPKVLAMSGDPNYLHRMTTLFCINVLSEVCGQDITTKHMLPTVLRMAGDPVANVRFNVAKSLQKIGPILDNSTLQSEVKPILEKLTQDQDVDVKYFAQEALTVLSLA

How the values were obtained:
SET (human) = SET (human) (UniProt Q01105); assay: co-IP; LO2 cells with or without TTC36 knockout, and with Ttc36 re-expressed; immunoprecipitation with GFP magnetic beads, immunoblotting
TTC36 (human) = target: T1, TTC36 (human) (UniProt A6NLP5); assay: co-IP; HEK-293T cells and LO2 cells transfected with the specified plasmids (Ttc36 overexpression); immunoprecipitation with GFP magnetic beads, immunoblotting
T1 sequence: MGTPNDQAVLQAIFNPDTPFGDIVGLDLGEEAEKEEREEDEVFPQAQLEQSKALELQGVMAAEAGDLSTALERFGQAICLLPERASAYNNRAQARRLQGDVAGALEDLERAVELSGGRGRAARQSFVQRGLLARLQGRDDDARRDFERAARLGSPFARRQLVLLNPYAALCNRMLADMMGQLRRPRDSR

binding (SET (human)) | binding (TTC36 (human)) | Substance
binds | – | PP2ACB (from UniProt P62714 1-309)
binds | binds | PPP2R1A (from UniProt P30153 1-589)
– | binds | SET (from UniProt Q01105-1 1-290)
